Experimental data: PubChem BioAssay AID504786 (Drosophila RNAi Screening Center, 2011)

Test: 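Positive regulators of HIF-driven reporter output in Drosophila cells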 (primary screen)
Cell system: Drosophila S2 cells with a stable HIF luciferase reporter
Reagents: long dsRNA against Drosophila genes, about 0.2 µg dsRNA per well of a 384-well plate
Timing: three days of knock-down, then 20 h of DFO before reading
Conditions: desferrioxamine (DFO) at 100 µM, an iron chelator that mimics hypoxia, for 20 h
Read-out: 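HIF reporter luminescence in cells given 100 µM DFO for 20 h, using the mouse ldh-a hypoxia-response element, scored as per-plate z-scores; higher means greater loss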
Direction: z-score: higher = stronger loss of HIF reporter signal
The deposit covers about 21,000 reagents; this is an unselected part of those that have a named target and a result. 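Primary screen; positive scores mean lost reporter signal, so the sign may be inverted from the usual convention.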 The numbers tell different reagents against one gene apart. Names joined by + are all predicted targets of the reagent. Not all columns of the deposit are shown. Reagent sequences are not shown.

z-score, replicate 1, by gene knocked down and reagent
gry: #1 0; #2 -0.4
Samtor: #1 -0.3
Gyg: #1 0.2; #2 -0.3
laza: #1 -0.3
CG12091: #1 -0.4
Oct-TyrR: #1 -0.2
Lime: #1 -0.2
ItgaPS5: #1 -0.3
CG32299 + CG32298: #1 -0.3
orion: #1 -0.2; #2 -0.2
CG18586: #1 -0.4
Eip74EF: #1 1.4; #2 -0.5
CG34001: #1 -0.3
CG11839: #1 -0.1
Cpn: #1 -0.4
Mtk: #1 -0.5
Dhit: #1 -0.2
Parg: #1 -0.3
sigmar: #1 -0.2
CycE: #1 3.4; #2 0.7
CG15572: #1 -0.3
CG14316: #1 -1.1
Lip1: #1 -0.3
CR18275 + CG13373: #1 -0.3
CG14333 (retired record): #1 -0.3; #2 -0.2
witty: #1 -0.2
GstD3: #1 -0.4
Npc2f: #1 -0.3
Upf1: #1 -0.3
CG30075: #1 -0.2
CG3552: #1 -0.3
CG8543: #1 -0.1
CG6761: #1 0
polo: #1 -0.3
spi: #1 -0.2
CG3999: #1 -0.3
mei-38: #1 -0.2
Pak: #1 -0.4
Spt5: #1 2.3
RpS19b: #1 1.3
CG30384: #1 -0.3
Spag1: #1 -0.2
CG34040: #1 -0.1
Targ1: #1 -0.1
RapGAP1: #1 -0.2; #2 -0.2; #3 -0.3
nonA: #1 -0.1
Spn77Bb + Spn77Bc: #1 -0.3; #2 -0.3
Ret: #1 -0.3; #2 -0.1
Ir8a: #1 -0.2; #2 -0.2
CG34006 (retired record): #1 0.2
CG13360: #1 -0.1
CG11638: #1 -0.4; #2 -0.4
eIF2Bgamma: #1 -0.3
CG12617: #1 -0.3
CG32354: #1 -0.4; #2 -0.3
RpS28a: #1 -0.4
CG13800 (retired record): #1 -0.1
CG15404: #1 -0.3
bel: #1 -0.6
CG9801: #1 -0.4
Vago: #1 -0.3
CG6766: #1 -0.2
Ugt302C1: #1 -0.4
CG1662: #1 -0.2
CheB38a: #1 0
ringer: #1 -0.2
Mlc2: #1 -0.3
CG10139: #1 -0.2
CG42703: #1 -0.7
RunxB: #1 -0.3; #2 -0.1; #3 -0.9
